Test results from patent publication US20240000811A1, “INOSITOL HEXAKISPHOSPHATE ANALOGUES FOR TREATMENT OF CALCIFICATION ASSOCIATED KIDNEY DISEASES” (INOSITEC AG, priority 2020, published 2024).

System: C57BL/6 male mice on high phosphate diet
Experiment: Mouse model of high phosphate-induced kidney damage
Format: in vivo
Settings: 100 mg/kg s.c. three times a week, 12 to 20 weeks of age
Procedure: C57BL/6 male mice (12 weeks of age) were placed on either regular diet containing 0.35% inorganic phosphate or high phosphate diet containing 2.0% inorganic phosphate. These mice were subcutaneously injected with either (OEG2)2-IP4 (100 mg/kg) or vehicle (distilled water) three times a week and then sacrificed at 20 weeks of age to harvest their blood and kidneys. Some mice were transferred individually to metabolic cages to collect urine for 3 days before sacrifice. Serum FGF23 levels were measured using intact FGF23 ELISA (Kinos) according to the manufacturers' protocols. Serum and urine levels of phosphate were measured using Fuji Dri-Chem slides and the analyzer (Dri-Chem NX500V, Fuji, Tokyo, Japan). […] Quantitative RT-PCR reactions were performed using 20 ng of cDNA incubated with 410 nM of each primer and 6 μL of SYBR Green PCR Master mix (Toyoba, Osaka, Japan THUNDERBIRD SYBR qPCR Mix QPS-201) in a total volume of 12 μl. […] Relative mRNA levels were calculated by the comparative threshold cycle method using cyclophilin as an internal control. […] The collagen volume fraction (the ratio of the Sirius Red-positive area to the total area) was quantified using an image analysis software (IMAGE PRO 9.32, Medica Cybernetics, Rockville, MD, USA) as previously described (Hirano, Y. Kurosu et al., FEBS Open Bio. 10, 894-903. DOI:10.1002/2211-5463.1284, 2020). […]

SMILES: COCCOCCO[C@@H]1C(OP(=O)(O)O)[C@H](OCCOCCOC)[C@@H](OP(=O)(O)O)C(OP(=O)(O)O)[C@H]1OP(=O)(O)O (some centres unmarked) [(OEG2)2-IP4]
- serum phosphate, CaP or urine calcium at the end of the treatment period, treatment vs vehicle group: no significant differences
- urinary phosphate excretion, treatment vs vehicle group: no significant difference
